Assay results published in PMC3621618, “Comparative measurement of CNP and NT-proCNP in human blood samples: a methodological evaluation” (Journal of Negative Results in Biomedicine, 2013).

Legend:
[1] = CNP concentration in blood samples, CNP-22 EIA Kit (Phoenix); set-up: species or system human; conditions: mean ± SD
[2] = EDTA, RIA, cited from earlier work
[3] = ELISA, mean ± SD, cited from earlier work; for CNP (pg/ml) Plasma: EDTA

## C-type natriuretic peptide [CNP]
[1]; 12 healthy male volunteers, fasting, Potassium-EDTA full blood sample, immediately centrifuged, CNP-22 EIA
  baseline concentration of CNP in full blood samples: 0.991 ± 0.489 ng/mL
[1]; 12 healthy male volunteers, fasting, serum (Kaolin clotting activator), immediately centrifuged, CNP-22 EIA
  baseline concentration of CNP in serum: 0.997 ± 0.379 ng/mL
[1]; 12 healthy male volunteers, fasting, sodium-citrate plasma, immediately centrifuged, CNP-22 EIA
  baseline concentration of CNP in plasma: 1.933 ± 0.699 ng/mL
[1]; present study, healthy, age 29 ± 2, n = 12, ELISA
  CNP (pg/ml) Serum: 997 ± 379^E pg/ml
[1]; present study, healthy, n = 12, sodium-citrate anticoagulated, ELISA
  CNP (pg/ml) Plasma: 1933 ± 699°^E pg/ml
[2]; ILVD (idiopathic left ventricle dysfunction), n = 51, mean ± SD
  CNP (pg/ml) Plasma: 7.0 ± 0.9*^R pg/ml
[2]; cardiovascular disease, n = 120, arterial blood sample
  CNP (pg/ml) Plasma: 1.43*^R,a pg/ml
[2]; childrens, age 1-12 years, n = 32, mean ± SD
  CNP (pg/ml) Plasma: 13.6 ± 2.3*^R pg/ml
[2]; diabetes, n = 19, mean ± SD
  CNP (pg/ml) Plasma: 8.70 ± 1.62*^R pg/ml
[2]; healthy adults, age 64 ± 1, n = 32, mean ± SD
  CNP (pg/ml) Plasma: 7.4 ± 1.0*^R pg/ml
[2]; healthy, age 45 ± 6, n = 11, mean ± SD
  CNP (pg/ml) Plasma: 4.2 ± 0.4*^R pg/ml
[2]; healthy, age 61 ± 2, n = 21, mean ± SD
  CNP (pg/ml) Plasma: 2.7 ± 0.2*^R pg/ml
[2]; healthy, age 61 ± 2, n = 60, mean ± SD
  CNP (pg/ml) Plasma: 2.5 ± 0.12*^R pg/ml
[2]; healthy, age 61 ± 2, n = 73, mean ± SD
  CNP (pg/ml) Plasma: 2.35 ± 0.11*^R pg/ml
[2]; heart failure, n = 130, mean ± SD
  CNP (pg/ml) Plasma: 7.86 ± 0.41*^R pg/ml
[2]; infants, age 1-12 m, n = 22, mean ± SD
  CNP (pg/ml) Plasma: 15.4 ± 2.7*^R pg/ml
[2]; liver cirrhosis, RI (renal insufficiency), n = 20, mean ± SD
  CNP (pg/ml) Plasma: 2.7 ± 0.4*^R pg/ml
[2]; liver cirrhosis, n = 24, mean ± SD
  CNP (pg/ml) Plasma: 4.97 ± 0.55*^R pg/ml
[2]; liver cirrhosis, no RI, n = 20, mean ± SD
  CNP (pg/ml) Plasma: 3.0 ± 0.2*^R pg/ml
[2]; newborns, age 0-3d, n = 41, mean ± SD
  CNP (pg/ml) Plasma: 11.6 ± 2.1*^R pg/ml
[2]; newborns, age 4-30d, n = 24, mean ± SD
  CNP (pg/ml) Plasma: 16.4 ± 3.7*^R pg/ml
[3]; Behcet, active, n = 28
  CNP (pg/ml) Serum: 490 ± 120^E pg/ml
[3]; Behcet, inactive, n = 25
  CNP (pg/ml) Serum: 650 ± 200^E pg/ml
[3]; Hyperlipidemia, n = 44
  CNP (pg/ml) Plasma: 4100 ± 5800*^E pg/ml
[3]; healthy controls, matched, n = 20
  CNP (pg/ml) Plasma: 5700 ± 3300*^E pg/ml
[3]; healthy, age 34 ± 6, n = 26
  CNP (pg/ml) Serum: 800 ± 270^E pg/ml

Read-outs that look alike come from different tables or passages of the source. Marks after values point to notes of the source that are not given here.
